Data: PMC3577914
These are yes or no findings as the source states them, for the method shown. Binding seen in cells or lysates may run through a third protein. Some results given as binding are weak or reduced against the parent protein; the word gives no strength. For part of these data: Sequences can lack the tags named with a protein.

Chains of the proteins cited; added tags and fusions are not shown.
UniProt Q91VH2: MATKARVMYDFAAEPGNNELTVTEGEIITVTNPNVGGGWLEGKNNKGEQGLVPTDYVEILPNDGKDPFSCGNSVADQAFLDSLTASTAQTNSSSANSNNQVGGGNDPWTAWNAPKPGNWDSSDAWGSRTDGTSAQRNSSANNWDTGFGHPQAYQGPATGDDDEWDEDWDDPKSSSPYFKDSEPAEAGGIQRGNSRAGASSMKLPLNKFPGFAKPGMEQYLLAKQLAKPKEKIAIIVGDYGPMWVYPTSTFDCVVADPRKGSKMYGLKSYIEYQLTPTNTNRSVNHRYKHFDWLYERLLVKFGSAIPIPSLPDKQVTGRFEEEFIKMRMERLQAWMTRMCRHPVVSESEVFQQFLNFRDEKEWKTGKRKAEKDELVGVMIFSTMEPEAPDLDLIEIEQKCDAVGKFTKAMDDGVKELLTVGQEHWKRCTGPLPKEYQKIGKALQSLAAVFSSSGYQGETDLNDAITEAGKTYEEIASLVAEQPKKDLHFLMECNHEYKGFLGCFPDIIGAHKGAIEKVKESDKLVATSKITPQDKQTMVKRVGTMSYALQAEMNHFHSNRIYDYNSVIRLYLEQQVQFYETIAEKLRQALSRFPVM
UniProt Q6PFY1: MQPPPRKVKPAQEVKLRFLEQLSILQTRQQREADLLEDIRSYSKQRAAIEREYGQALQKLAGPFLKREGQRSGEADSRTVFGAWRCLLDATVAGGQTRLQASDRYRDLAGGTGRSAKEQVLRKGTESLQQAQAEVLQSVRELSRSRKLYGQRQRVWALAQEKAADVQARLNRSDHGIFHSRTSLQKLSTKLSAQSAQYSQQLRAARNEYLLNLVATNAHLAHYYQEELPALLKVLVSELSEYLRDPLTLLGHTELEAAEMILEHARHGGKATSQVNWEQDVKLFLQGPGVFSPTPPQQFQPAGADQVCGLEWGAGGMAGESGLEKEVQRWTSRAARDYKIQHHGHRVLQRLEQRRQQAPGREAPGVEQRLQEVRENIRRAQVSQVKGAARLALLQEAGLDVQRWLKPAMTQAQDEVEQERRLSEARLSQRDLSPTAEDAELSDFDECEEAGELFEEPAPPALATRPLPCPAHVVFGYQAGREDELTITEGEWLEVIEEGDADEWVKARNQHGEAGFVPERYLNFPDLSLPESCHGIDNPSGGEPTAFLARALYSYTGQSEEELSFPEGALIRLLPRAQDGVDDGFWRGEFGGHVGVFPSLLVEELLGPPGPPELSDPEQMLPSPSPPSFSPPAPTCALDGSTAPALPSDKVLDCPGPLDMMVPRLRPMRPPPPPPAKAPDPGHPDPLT

Tests used:
Experiment in all cases: co-IP; HEK293 cells transfected with epitope-tagged proteins; lysis in 150 mM NaCl, 50 mM Tris pH 7.5, 1% Triton X-100 or RIPA buffer; anti-Myc antibody with Protein A/G agarose overnight at 4°C; Western blot
[1] = molecular target: Sorting Nexin 9 (SNX9), mouse, epitope-tagged (mouse) (UniProt Q91VH2)
[2] = molecular target: FCHSD1 (FCH domain and double SH3 domains containing protein 1), mouse, epitope-tagged full-length (mouse) (UniProt Q6PFY1)
[3] = molecular target: T1, FCHSD2 (FCH domain and double SH3 domains containing protein 2), mouse, epitope-tagged full-length (mouse) (UniProt Q3USJ8)
T1 sequence: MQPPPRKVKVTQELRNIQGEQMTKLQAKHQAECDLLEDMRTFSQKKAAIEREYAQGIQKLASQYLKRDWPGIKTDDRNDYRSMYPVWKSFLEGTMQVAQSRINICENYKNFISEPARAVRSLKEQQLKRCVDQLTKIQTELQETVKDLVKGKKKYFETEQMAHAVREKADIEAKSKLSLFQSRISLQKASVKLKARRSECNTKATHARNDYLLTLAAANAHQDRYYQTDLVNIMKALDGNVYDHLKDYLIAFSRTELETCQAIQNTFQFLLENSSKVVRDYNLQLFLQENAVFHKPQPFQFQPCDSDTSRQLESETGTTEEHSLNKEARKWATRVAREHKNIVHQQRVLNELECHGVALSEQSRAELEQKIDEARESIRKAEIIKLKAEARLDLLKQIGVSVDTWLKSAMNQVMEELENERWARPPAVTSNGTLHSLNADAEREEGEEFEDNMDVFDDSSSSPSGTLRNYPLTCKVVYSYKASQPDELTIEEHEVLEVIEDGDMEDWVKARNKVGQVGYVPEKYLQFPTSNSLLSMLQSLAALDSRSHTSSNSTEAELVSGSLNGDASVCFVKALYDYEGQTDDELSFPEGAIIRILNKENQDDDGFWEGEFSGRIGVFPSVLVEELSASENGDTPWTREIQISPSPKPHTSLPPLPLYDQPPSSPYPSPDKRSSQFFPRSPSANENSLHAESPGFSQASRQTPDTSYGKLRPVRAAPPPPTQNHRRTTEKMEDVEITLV

Measured: binding

FCHSD1 (FCH domain and double SH3 domains containing protein 1), mouse, epitope-tagged full-length (from UniProt Q6PFY1 1-688)
binds: all assays above
